Experimental data from PMC9018842.
Results are given in words; binding and its absence hold for the method and conditions named. Binding seen in cells or lysates may run through a third protein. Some binding calls cover weakened binding; strength is not graded here.

Sequences of proteins named here, by UniProt entry; tags and fusion partners are left off.
UniProt D4A523: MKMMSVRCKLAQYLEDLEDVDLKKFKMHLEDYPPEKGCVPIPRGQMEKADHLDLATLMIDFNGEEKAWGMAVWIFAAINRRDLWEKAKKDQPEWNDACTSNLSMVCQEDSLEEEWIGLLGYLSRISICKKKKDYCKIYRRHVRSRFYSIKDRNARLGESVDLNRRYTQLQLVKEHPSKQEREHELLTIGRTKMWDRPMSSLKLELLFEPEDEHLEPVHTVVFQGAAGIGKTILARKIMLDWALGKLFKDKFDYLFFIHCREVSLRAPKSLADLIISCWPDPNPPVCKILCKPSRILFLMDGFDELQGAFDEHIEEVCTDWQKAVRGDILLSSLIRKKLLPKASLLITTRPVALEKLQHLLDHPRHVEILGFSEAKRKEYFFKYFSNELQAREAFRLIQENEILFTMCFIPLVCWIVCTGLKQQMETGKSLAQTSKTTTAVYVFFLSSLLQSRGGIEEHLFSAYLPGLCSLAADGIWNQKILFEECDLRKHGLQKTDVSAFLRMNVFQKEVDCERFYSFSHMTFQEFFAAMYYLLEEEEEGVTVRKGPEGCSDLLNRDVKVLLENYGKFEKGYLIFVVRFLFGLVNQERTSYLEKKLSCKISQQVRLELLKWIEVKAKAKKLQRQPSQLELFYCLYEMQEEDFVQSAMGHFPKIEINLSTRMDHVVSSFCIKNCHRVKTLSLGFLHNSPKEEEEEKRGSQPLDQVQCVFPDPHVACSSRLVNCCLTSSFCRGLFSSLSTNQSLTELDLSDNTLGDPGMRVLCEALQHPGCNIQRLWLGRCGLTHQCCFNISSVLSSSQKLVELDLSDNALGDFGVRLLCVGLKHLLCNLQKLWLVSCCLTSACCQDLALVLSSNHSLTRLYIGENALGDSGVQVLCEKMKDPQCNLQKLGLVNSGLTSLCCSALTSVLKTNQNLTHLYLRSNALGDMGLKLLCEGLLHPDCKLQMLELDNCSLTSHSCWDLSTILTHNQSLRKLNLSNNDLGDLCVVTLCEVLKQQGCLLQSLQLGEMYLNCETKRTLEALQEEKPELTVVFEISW

Biological target: T1, thioredoxin-interacting protein (TXNIP) (rat (endogenous in rat NP cells)) (UniProt Q5M7W1)
T1 sequence: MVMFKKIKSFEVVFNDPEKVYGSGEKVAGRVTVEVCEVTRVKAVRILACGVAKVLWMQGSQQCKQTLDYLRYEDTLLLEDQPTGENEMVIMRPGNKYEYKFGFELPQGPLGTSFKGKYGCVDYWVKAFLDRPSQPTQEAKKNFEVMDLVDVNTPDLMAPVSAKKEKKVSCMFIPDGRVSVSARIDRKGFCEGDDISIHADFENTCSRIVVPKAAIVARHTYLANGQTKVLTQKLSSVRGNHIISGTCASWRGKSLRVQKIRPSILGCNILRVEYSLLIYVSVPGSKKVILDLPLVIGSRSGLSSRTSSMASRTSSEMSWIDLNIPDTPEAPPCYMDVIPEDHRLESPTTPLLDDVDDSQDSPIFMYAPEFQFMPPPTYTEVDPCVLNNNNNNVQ
Experiment: co-IP; Pierce Classic Magnetic Co-IP kit; lysates of rat NP cells incubated with anti-TXNIP antibody overnight at 4 °C, protein A/G magnetic beads 1 h at room temperature, blot with anti-NLRP3; cells treated with or without H2O2, MFG-E8, Nrf2 siRNA

binding: binds
Substance: NLRP3 (from UniProt D4A523 1-1035)
